Measurements as given in publication PMC6351106.
These are yes or no findings as the source states them, for the method shown. Binding seen in cells or lysates may run through a third protein. Here binding means that the protein was enriched with, or labelled near, the bait; the list need not be complete.

Amino acid sequences for entries named in this document (tags omitted).
UniProt Q969U6: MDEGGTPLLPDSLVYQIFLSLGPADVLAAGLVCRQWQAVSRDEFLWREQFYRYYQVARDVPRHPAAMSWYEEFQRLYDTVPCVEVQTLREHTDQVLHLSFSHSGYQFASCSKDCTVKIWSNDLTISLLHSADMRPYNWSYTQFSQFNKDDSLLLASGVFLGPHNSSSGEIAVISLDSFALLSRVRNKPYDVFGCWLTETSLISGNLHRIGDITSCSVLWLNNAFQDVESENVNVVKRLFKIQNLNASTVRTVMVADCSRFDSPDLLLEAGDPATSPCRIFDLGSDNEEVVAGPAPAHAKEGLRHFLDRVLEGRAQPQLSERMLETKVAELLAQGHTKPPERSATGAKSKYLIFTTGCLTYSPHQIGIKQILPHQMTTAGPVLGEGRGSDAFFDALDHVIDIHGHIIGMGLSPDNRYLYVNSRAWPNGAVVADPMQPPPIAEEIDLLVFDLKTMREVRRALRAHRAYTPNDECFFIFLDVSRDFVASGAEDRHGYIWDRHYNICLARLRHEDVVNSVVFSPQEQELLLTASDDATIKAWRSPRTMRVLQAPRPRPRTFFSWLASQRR
UniProt P63208: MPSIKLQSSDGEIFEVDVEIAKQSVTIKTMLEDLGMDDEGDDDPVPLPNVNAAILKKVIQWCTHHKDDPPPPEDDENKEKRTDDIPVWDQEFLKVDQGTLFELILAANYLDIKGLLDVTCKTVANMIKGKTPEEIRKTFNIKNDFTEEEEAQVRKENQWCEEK

Target: Streptag-FLAG (SF)-tagged FBXW5 (human) (UniProt Q969U6)
Assay: affinity purification with mass spectrometry; SF-FBXW5 transiently expressed in HEK293T, MLN4924 for 4 h, lysis buffer 50 mM Tris pH 7.4, 150 mM NaCl, 2 mM EDTA, 10% glycerol, 0.5% NP-40; Streptactin or FLAG-M2 beads; MudPIT

binding: binds
Substance: endogenous SKP1 (from UniProt P63208 1-163)
